The experiment deals with GltB (endogenous, P. aeruginosa PAO1) (P. aeruginosa PAO1 (endogenous in PAO1)). Kind of experiment: affinity purification with mass spectrometry; the anti-GltB co-IP eluates of PAO1/p-gtrS-YFP, SDS-PAGE, trypsin, LC-MS/MS; background of the ΔgltB control sample excluded.

No constants are given. Whether binding was seen depends on the method and setting. In cells and extracts the contact can be indirect. These calls come from enrichment with a bait or labelling near it, and not all partners need be listed. Tags and fused reporters may be left off the sequences shown.

B1: PilJ (endogenous, P. aeruginosa PAO1) (protein, UniProt P42257 1-682)
chain: MKKINAGNLFAGMRSSSVIAGLFIVLIVSIVLLFANFAYLNTQSNHDKQYIGHAGELRVLSQRIAKNATEAAAGKGEAFKLLKDARNDFEKRWNILVNGDESTSLPPSPEAVKPQMDVVQQDWDGLRKNADSILASEQTVLSLHQVASTLAETIPQLQVEYEEVVDILLENGAPADQVAVAQRQSLLAERILGSVNKVLAGDENSVQAADSFGRDASLFGRVLKGMQEGNAAMSISKVTNAEAVDRLNEIAELFEFVSGSVDEILETSPDLFQVREAANNIFSVSQTLLDKASQLADGFENLAGGRSINLFAGYALGALALASIILIGLVMVRETNRRLAETAEKNDRNQAAILRLLDEIADLADGDLTVAATVTEDFTGAIADSINYSIDQLRELVETINQTAVQVAAAAQETQSTAMHLAEASEHQAQEIAGASAAINEMAVSIDQVSANASESSAVAERSVAIANKGNEVVHNTITGMDNIREQIQDTSKRIKRLGESSQEIGDIVSLINDIADQTNILALNAAIQASMAGDAGRGFAVVADEVQRLAERSSAATKQIEALVKTIQTDTNEAVISMEQTTSEVVRGARLAQDAGVALEEIEKVSKTLAALIQNISNAARQQASSAGHISNTMNVIQEITSQTSAGTTATARSIGNLAKMASEMRNSVSGFKLPEGVEQA
In the case of B1, the binding result is given as “binds”.

B2: yellow fluorescent protein (YFP)-tagged GtrS (GtrS-YFP) (protein, UniProt Q9HZ47 1-473)
chain: MPRSLLGRMLLLTLLAVLVAQGLSSLFWLSHLRSSQREGLLTSSRSLAYSMAASVSYFRSLPLGYRPLVLDQLRSMGGTRFFVSLNDRPLEMRALPDTPNKQAVLEIVQDVLHQRLGKEVELQVEFVSPDELRLFNGALKLDELPRSWAHYALTLEPVNPPVLVTQIRIGESEWLYIASLMPAPYVSLEPEGLQPQQVLSIVFTSLLLLLFTGLLMHWQSRPLKRLARAARDLALGSPSAALEERGASELVEVARAFNTMHERIDRYLNERGQLFSAISHDLRTPITRLRLRVELLEDERLQEKFGRDLDELELLVKGALQCVKDTDIHENVESVDLNLLLQHIAEPYLADGRVEVVGRAAEPYPGKPLALKRCIGNLLDNALKYGERARLSLEDGPEAVVLHVDDDGPGVPEQRLEQIFEPRFRLSPRGQGYGLGLGIARNIAHTHGGEVSLQNRREGGLRVSLRLPRLGLE
In the case of B2, the binding entry was “binds”.

Source of the values: paper PMC7927077, “Glucose-Binding of Periplasmic Protein GltB Activates GtrS-GltR Two-Component System in Pseudomonas aeruginosa” (Microorganisms, 2021).
